According to the supplement of paper PMC10849652:
Some of the results follow.

Amino acid sequences for entries named in this document (tags omitted). A change or cut given only in a name is not applied to a line headed by its entry.
UniProt Q53HC9: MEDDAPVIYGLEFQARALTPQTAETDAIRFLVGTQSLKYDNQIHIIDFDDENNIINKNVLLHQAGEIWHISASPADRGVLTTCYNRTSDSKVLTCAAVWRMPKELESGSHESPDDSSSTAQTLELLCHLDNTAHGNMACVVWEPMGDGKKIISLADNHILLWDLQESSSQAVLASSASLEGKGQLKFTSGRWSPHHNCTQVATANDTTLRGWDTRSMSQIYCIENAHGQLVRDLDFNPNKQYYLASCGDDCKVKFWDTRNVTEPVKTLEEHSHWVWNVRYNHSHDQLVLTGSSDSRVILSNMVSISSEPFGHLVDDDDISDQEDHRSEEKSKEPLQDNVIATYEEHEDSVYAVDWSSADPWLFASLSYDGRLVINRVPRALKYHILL
UniProt P19447: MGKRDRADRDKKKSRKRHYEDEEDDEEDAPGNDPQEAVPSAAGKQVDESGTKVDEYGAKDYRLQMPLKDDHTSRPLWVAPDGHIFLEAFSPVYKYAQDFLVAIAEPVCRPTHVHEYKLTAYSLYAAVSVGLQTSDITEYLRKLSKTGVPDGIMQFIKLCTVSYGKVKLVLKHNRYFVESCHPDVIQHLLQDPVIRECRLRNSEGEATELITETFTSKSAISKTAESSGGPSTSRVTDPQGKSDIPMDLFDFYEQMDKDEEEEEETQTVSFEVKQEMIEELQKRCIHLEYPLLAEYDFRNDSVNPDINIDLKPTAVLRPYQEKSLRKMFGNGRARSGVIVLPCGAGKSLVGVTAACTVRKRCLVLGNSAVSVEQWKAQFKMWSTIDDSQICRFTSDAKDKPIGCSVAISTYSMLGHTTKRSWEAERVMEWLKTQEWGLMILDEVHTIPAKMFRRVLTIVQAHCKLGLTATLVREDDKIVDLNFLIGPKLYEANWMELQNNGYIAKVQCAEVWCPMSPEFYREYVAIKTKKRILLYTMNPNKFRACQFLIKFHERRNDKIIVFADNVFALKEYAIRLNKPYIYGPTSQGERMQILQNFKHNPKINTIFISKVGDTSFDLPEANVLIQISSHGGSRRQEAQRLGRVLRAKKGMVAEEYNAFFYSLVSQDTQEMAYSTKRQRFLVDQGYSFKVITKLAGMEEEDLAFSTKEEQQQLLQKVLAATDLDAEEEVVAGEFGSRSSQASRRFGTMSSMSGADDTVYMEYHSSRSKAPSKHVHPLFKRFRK
UniProt Q7L2H7, whole entry, looked up: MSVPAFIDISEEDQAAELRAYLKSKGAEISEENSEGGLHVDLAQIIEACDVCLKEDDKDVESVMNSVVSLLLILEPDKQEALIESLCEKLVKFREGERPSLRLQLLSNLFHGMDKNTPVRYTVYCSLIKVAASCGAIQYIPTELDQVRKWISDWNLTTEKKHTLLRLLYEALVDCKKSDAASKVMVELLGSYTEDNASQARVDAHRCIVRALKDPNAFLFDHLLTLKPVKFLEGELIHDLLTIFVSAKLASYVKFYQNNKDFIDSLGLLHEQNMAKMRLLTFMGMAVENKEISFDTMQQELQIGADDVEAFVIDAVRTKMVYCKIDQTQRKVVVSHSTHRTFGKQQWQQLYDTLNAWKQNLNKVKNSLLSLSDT
UniProt P55884, whole entry, looked up: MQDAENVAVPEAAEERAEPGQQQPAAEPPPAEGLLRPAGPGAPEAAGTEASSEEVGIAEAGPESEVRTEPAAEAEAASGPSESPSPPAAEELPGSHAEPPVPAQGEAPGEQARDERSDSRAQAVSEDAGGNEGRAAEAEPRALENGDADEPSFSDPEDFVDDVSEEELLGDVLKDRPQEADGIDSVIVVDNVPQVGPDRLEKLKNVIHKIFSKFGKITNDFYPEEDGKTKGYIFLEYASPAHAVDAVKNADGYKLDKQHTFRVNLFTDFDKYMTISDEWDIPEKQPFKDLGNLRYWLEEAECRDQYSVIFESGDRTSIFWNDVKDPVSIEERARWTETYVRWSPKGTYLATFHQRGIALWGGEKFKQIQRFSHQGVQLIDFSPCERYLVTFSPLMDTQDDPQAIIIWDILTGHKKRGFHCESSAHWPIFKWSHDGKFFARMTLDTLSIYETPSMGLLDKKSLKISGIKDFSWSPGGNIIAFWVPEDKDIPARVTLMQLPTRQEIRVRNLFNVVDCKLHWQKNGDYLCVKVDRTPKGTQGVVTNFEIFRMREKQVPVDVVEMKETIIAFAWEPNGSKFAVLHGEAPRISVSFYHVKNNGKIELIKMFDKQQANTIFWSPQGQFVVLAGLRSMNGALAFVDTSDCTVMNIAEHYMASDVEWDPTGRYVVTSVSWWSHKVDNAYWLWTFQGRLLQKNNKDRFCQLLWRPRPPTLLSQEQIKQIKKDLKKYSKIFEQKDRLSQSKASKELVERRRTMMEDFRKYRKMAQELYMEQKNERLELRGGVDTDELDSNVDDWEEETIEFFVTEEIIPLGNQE
UniProt Q9UBC2: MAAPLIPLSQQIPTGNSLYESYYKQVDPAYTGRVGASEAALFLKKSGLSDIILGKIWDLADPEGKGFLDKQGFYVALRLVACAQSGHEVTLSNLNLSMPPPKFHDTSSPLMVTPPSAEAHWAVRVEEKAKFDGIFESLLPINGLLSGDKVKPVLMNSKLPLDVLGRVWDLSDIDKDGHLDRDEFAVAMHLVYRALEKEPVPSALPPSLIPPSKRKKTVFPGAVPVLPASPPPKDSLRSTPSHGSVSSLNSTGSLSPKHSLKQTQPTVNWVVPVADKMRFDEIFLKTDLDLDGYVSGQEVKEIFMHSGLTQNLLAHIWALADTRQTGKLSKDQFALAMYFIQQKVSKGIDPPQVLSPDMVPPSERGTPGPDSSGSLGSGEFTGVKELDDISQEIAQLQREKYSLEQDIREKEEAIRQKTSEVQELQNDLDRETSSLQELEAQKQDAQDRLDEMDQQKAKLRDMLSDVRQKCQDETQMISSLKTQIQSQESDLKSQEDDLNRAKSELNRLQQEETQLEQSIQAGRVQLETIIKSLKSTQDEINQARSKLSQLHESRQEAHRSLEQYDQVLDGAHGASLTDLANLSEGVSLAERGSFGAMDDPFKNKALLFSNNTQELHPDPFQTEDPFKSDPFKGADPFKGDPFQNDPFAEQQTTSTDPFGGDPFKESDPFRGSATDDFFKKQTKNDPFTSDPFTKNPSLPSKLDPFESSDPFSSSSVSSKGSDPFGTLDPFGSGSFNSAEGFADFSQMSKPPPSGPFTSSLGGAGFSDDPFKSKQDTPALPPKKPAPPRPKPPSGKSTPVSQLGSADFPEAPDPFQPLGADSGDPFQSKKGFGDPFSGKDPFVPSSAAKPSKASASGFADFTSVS
UniProt Q96RT1: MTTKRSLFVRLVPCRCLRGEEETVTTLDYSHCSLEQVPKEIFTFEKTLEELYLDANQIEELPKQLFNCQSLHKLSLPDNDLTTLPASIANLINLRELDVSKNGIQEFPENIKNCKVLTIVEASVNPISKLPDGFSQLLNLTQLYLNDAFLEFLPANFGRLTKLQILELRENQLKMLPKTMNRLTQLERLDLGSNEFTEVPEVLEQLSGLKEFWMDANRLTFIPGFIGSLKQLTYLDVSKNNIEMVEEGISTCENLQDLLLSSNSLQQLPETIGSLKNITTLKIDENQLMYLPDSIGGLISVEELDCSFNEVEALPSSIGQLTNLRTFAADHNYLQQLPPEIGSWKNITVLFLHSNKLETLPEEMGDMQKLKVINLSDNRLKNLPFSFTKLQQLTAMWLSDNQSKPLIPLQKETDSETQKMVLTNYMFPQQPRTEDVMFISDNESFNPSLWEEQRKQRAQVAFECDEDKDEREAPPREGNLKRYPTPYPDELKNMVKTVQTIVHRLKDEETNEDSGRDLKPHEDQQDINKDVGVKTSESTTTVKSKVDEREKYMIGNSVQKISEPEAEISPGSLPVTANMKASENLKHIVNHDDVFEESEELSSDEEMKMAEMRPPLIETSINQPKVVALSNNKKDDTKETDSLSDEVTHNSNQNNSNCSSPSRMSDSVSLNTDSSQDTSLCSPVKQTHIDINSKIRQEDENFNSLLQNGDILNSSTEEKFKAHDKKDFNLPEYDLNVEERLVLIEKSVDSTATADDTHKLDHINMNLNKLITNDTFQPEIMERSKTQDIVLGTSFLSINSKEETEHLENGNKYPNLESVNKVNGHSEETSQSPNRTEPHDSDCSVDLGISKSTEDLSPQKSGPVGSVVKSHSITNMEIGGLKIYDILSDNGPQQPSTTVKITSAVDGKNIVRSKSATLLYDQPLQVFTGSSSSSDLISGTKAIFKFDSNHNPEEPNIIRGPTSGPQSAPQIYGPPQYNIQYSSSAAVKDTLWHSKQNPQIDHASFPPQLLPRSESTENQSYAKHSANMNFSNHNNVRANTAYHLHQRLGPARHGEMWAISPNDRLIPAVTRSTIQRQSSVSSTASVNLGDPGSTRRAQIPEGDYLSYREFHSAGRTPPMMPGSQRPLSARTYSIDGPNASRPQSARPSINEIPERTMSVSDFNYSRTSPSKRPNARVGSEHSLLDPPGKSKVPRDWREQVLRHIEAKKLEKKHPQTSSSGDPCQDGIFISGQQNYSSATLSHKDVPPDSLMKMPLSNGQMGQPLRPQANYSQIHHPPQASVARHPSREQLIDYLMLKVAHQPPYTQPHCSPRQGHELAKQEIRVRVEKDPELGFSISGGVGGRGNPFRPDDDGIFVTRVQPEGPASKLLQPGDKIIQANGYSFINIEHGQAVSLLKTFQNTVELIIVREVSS
UniProt Q13347, whole entry, looked up: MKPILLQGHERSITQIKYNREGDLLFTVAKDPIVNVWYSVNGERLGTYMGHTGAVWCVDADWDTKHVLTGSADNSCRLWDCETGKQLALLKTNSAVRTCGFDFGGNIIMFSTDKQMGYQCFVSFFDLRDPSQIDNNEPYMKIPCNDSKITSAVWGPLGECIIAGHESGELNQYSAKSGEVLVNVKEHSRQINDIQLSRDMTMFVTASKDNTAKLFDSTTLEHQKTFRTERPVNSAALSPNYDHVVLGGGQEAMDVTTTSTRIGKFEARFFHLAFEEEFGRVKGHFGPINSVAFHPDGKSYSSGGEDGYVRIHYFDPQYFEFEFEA
UniProt P84090, whole entry, looked up: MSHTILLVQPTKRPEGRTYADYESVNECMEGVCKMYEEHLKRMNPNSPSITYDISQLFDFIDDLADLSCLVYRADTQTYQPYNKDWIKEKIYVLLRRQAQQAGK
UniProt Q8N766: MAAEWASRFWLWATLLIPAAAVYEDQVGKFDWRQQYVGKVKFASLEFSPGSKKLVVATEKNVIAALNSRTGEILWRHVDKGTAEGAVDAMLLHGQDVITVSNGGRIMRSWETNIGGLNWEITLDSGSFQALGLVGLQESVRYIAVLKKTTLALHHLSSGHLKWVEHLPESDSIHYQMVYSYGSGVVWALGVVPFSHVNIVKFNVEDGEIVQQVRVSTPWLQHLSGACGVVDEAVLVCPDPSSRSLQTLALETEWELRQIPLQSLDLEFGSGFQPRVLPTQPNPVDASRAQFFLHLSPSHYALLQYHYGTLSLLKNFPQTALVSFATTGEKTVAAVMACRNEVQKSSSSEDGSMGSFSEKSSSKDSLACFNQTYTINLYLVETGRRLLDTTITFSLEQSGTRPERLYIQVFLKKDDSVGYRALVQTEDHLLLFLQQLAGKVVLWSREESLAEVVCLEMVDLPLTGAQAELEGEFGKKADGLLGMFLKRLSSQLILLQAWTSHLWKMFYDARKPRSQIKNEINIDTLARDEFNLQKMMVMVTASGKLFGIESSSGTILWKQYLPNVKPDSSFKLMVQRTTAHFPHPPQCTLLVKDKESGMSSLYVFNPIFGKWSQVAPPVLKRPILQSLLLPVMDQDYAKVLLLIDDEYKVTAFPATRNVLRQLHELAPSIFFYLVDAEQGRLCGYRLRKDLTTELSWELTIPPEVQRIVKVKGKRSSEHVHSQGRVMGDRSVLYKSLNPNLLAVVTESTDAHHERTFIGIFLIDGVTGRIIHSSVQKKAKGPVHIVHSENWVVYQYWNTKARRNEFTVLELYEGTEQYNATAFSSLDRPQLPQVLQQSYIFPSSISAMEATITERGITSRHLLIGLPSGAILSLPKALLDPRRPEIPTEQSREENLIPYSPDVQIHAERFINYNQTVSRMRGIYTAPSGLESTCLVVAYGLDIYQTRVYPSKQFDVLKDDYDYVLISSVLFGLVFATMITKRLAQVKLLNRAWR
UniProt O94919: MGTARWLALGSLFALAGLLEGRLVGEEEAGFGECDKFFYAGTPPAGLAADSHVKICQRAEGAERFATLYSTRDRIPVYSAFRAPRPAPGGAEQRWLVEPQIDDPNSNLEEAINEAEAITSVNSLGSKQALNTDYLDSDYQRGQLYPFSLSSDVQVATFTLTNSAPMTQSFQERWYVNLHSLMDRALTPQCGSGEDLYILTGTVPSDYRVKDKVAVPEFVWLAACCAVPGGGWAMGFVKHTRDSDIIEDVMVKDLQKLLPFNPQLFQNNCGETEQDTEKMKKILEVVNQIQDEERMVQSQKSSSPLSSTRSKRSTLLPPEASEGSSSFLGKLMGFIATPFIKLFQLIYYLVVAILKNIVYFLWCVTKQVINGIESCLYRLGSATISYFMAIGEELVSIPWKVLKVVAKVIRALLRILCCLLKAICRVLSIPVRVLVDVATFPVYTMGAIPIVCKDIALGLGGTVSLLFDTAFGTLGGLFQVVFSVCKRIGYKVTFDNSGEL

Tests used:
Experiment in all cases: log2 fold change, soluble protein after heating vs DMSO (PISA); higher = thermal stabilisation; K562 lysate, 10 uM; active = over 0.2 and 3.5 SD of the protein, either way, in both replicates (recomputed)
erlotinib = compound: C#Cc1cccc(Nc2ncnc3cc(OCCOC)c(OCCOC)cc23)c1 [erlotinib]
Outline: (§1)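 A 30 min treatment with 10 μM compound was applied to crude K562 extract at 1 mg/mL protein in PBS pH 7.4 with 1 mM MgCl2. Heating for 3 min spanned 48°C-58°C, after which aliquots were pooled, adjusted to 0.5% NP-40 at 4°C and spun at 21,000xg for 90 min. TMTpro 16plex LC-MS/MS of the supernatant, with channel sums equalised, gave values recorded as log-two fold change in thermal stability against solvent controls, from duplicates.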

[1] = compound: C/C(=N\NC(=O)C1=CC(=CC=C1)S(=O)(=O)N2CCOCC2)/C3=C(C=CC(=C3)Cl)O
Outline: as §1

[2] = compound: C1=CC(=CC=C1C2=NC3=C(N2)C=C(C=C3)C(=O)N)OC4=CC=C(C=C4)Cl
Outline: as §1

[3] = compound: C1=CC2=C(C=CC(=C2)/C=C\3/C(=O)NC(=NCC4=CC=CS4)S3)N=C1
Outline: as §1

[4] = compound: C1=CC2=NC=CN=C2C=C1/C=C/3\C(=O)NC(=O)S3
Outline: as §1

[5] = compound: C1=CC=C(C=C1)C2=NC(=C(N2)C3=CC=NC=C3)C4=CC(=C(C=C4)Cl)O
Outline: as §1

[6] = compound: C1=CC=C2C(=C1)C3=NNC4=CC=CC(=C43)C2=O
Outline: as §1

[7] = compound: C1CCN(C1)C(=O)NC2=CC=CC(=C2)NC3=NC=C(C(=N3)NCCC4=CN=CN4)Br
Outline: as §1

[8] = compound: C1CN(CCC1(CC2=CC=C(C=C2)Cl)N)C3=NC=NC4=C3C=CN4
Outline: as §1

IRAK-1-4 Inhibitor I = compound: C1COCCN1CCN2C3=CC=CC=C3N=C2NC(=O)C4=CC(=CC=C4)[N+](=O)[O-] [IRAK-1-4 Inhibitor I]
Outline: as §1

ibrutinib = compound: C=CC(=O)N1CCC[C@@H](n2nc(-c3ccc(Oc4ccccc4)cc3)c3c(N)ncnc32)C1 [ibrutinib]
Outline: as §1

[9] = compound: CC(=O)c1cnc2ccc(-c3cc(Cl)c(O)c(Cl)c3)nc2c1N[C@H]1CC[C@H](CN(C)C)CC1
Outline: as §1

ralimetinib = compound: CC(C)(C)Cn1c(N)nc2ccc(-c3[nH]c(C(C)(C)C)nc3-c3ccc(F)cc3)nc21 [ralimetinib]
Outline: as §1

[10] = compound: CC(C)(O)CC(=O)NCCn1ccc2ncnc(Nc3ccc(Oc4cccc(C(F)(F)F)c4)c(Cl)c3)c21
Outline: as §1

[11] = compound: CC(C)C1=C2N=C(C=C(N2N=C1)NCC3=CC=CC=C3)NCCCCCCN
Outline: as §1

[12] = compound: CC1=C(C(CC(=O)N1)C2=CC=C(C=C2)C(F)(F)F)C(=O)NC3=C(C=C4C(=C3)C=NN4)F
Outline: as §1

[13] = compound: CC1=C(C2=C(C=C1)C(=O)C3=CC=CC=C3N2CCCN)C
Outline: as §1

[14] = compound: CC1=C(C=C(C=C1)NC(=O)C2=CC(=CC=C2)C(C)(C)C#N)NC3=CC4=C(C=C3)N=CN(C4=O)C
Outline: as §1

[15] = compound: CC1=C(C=C(C=C1)NC(=O)C2=CC(=CC=C2)N(C)C)NC(=O)C3=CC=C(C=C3)O
Outline: as §1

[16] = compound: CC1=CC=C(C=C1)SC2=C3C=C(SC3=CN=C2)C(=O)N
Outline: as §1

Measured: log2 fold change

EIPR1 (UniProt Q53HC9)
inactive: erlotinib 0.011 | [1] -0.012 | [2] -0.002 | [3] -0.033 | [4] -0.019 | [5] 0.019 | [6] -0.017 | [7] -0.016 | [8] 0.004 | IRAK-1-4 Inhibitor I 0.004 | ibrutinib -0.012 | [9] -0.038 | ralimetinib 0.008 | [10] -0.009 | [11] -0.021 | [12] 0.002 | [13] -0.069 | [14] 0.031 | [15] -0.038 | [16] -0.013

EIF4G3, A0A0U1RQK7
inactive: erlotinib 0.021 | [1] -0.055 | [2] 0.004 | [3] 0.035 | [4] -0.019 | [5] -0.005 | [6] -0.036 | [7] 0.002 | [8] -0.002 | IRAK-1-4 Inhibitor I 0.022 | ibrutinib -0.007 | [9] -0.002 | ralimetinib -0.017 | [10] -0.003 | [11] 0.007 | [12] -0.012 | [13] 0.021 | [14] -0.011 | [15] -0.004 | [16] -0.006

ERCC3 (UniProt P19447)
inactive: erlotinib 0.024 | [1] -0.035 | [2] 0 | [3] -0.031 | [4] 0.002 | [5] 0.042 | [6] -0.061 | [7] -0.047 | [8] 0.025 | IRAK-1-4 Inhibitor I -0.022 | ibrutinib -0.024 | [9] -0.002 | ralimetinib -0.025 | [10] -0.02 | [11] -0.014 | [12] -0.02 | [13] -0.032 | [14] 0.014 | [15] -0.046 | [16] 0.027

EPPK1 (UniProt P58107)
inactive: erlotinib 0.022 | [1] 0.012 | [2] -0.012 | [3] -0.003 | [4] 0 | [5] -0.01 | [6] -0.002 | [7] -0.012 | [8] 0.008 | IRAK-1-4 Inhibitor I -0.06 | ibrutinib -0.007 | [9] -0.049 | ralimetinib 0.038 | [10] 0.013 | [11] 0.022 | [12] -0.012 | [13] 0.012 | [14] -0.026 | [15] 0.061 | [16] -0.043

EIF3M (UniProt Q7L2H7)
inactive: erlotinib 0.023 | [1] -0.056 | [2] -0.008 | [3] 0.016 | [4] -0.007 | [5] 0 | [6] 0.025 | [7] -0.021 | [8] 0.003 | IRAK-1-4 Inhibitor I 0.011 | ibrutinib -0.001 | [9] 0.012 | ralimetinib -0.003 | [10] 0.003 | [11] 0.012 | [12] 0.014 | [13] 0.019 | [14] -0.006 | [15] 0 | [16] 0.001

EIF3B isoform 2 (UniProt P55884)
inactive: erlotinib 0.005 | [1] -0.056 | [2] 0.006 | [3] -0.018 | [4] 0.006 | [5] -0.005 | [6] -0.016 | [7] -0.02 | [8] 0.001 | IRAK-1-4 Inhibitor I -0.008 | ibrutinib -0.029 | [9] -0.005 | ralimetinib 0.007 | [10] -0.002 | [11] -0.011 | [12] -0.018 | [13] 0.004 | [14] 0.015 | [15] -0.001 | [16] 0.007

Two consecutive records already listed, for reference:
EIPR1 (UniProt Q53HC9)
inactive: erlotinib 0.011 | [1] -0.012 | [2] -0.002 | [3] -0.033 | [4] -0.019 | [5] 0.019 | [6] -0.017 | [7] -0.016 | [8] 0.004 | IRAK-1-4 Inhibitor I 0.004 | ibrutinib -0.012 | [9] -0.038 | ralimetinib 0.008 | [10] -0.009 | [11] -0.021 | [12] 0.002 | [13] -0.069 | [14] 0.031 | [15] -0.038 | [16] -0.013

EIF4G3, A0A0U1RQK7
inactive: erlotinib 0.021 | [1] -0.055 | [2] 0.004 | [3] 0.035 | [4] -0.019 | [5] -0.005 | [6] -0.036 | [7] 0.002 | [8] -0.002 | IRAK-1-4 Inhibitor I 0.022 | ibrutinib -0.007 | [9] -0.002 | ralimetinib -0.017 | [10] -0.003 | [11] 0.007 | [12] -0.012 | [13] 0.021 | [14] -0.011 | [15] -0.004 | [16] -0.006

Additional entries

EPS15L1 isoform 2 (UniProt Q9UBC2)
inactive: erlotinib -0.009 | [1] -0.005 | [2] 0.081 | [3] -0.008 | [4] -0.036 | [5] -0.002 | [6] -0.012 | [7] 0.004 | [8] -0.022 | IRAK-1-4 Inhibitor I -0.002 | ibrutinib -0.003 | [9] -0.013 | ralimetinib 0.01 | [10] 0.004 | [11] 0.004 | [12] -0.012 | [13] 0.024 | [14] 0.002 | [15] 0.001 | [16] -0.025

ERBIN isoform 8 (UniProt Q96RT1)
inactive: erlotinib 0 | [1] -0.002 | [2] -0.008 | [3] 0.044 | [4] -0.032 | [5] -0.001 | [6] -0.034 | [7] 0.007 | [8] 0.023 | IRAK-1-4 Inhibitor I -0.034 | ibrutinib 0.029 | [9] -0.011 | ralimetinib -0.003 | [10] 0.01 | [11] -0.003 | [12] -0.037 | [13] 0.012 | [14] -0.007 | [15] 0.019 | [16] -0.01

EIF2B4 isoform 2 (UniProt Q9UI10)
inactive: erlotinib 0.031 | [1] 0.027 | [2] 0.008 | [3] 0.041 | [4] 0.009 | [5] 0.013 | [6] -0.04 | [7] -0.006 | [8] -0.008 | IRAK-1-4 Inhibitor I 0.03 | ibrutinib 0.011 | [9] 0.011 | ralimetinib 0.009 | [10] -0.005 | [11] -0.036 | [12] -0.004 | [13] -0.036 | [14] 0.001 | [15] -0.005 | [16] 0.04

ERCC5 (UniProt P28715)
inactive: erlotinib 0.025 | [1] -0.022 | [2] 0.042 | [3] 0.023 | [4] -0.104 | [5] 0.007 | [6] -0.037 | [7] -0.061 | [8] 0.008 | IRAK-1-4 Inhibitor I 0.022 | ibrutinib 0.038 | [9] -0.01 | ralimetinib 0 | [10] 0 | [11] 0.001 | [12] 0.079 | [13] -0.028 | [14] -0.061 | [15] 0.028 | [16] -0.006

EIF3I (UniProt Q13347)
inactive: erlotinib 0.013 | [1] 0.033 | [2] -0.029 | [3] 0.001 | [4] 0.022 | [5] 0 | [6] -0.026 | [7] 0.004 | [8] -0.007 | IRAK-1-4 Inhibitor I -0.039 | ibrutinib 0.018 | [9] -0.019 | ralimetinib 0.035 | [10] 0.046 | [11] 0.032 | [12] 0.003 | [13] 0.013 | [14] 0.009 | [15] 0.056 | [16] 0.022

EIF2AK4 (UniProt Q9P2K8)
inactive: erlotinib -0.029 | [1] 0.018 | [2] 0.017 | [3] 0.001 | [4] -0.014 | [5] 0.007 | [6] -0.026 | [7] 0.009 | [8] 0.016 | IRAK-1-4 Inhibitor I -0.002 | ibrutinib 0.026 | [9] -0.053 | ralimetinib 0.042 | [10] -0.032 | [11] 0.023 | [12] -0.005 | [13] -0.063 | [14] -0.003 | [15] -0.007 | [16] -0.021

ERH (UniProt P84090)
inactive: erlotinib 0.016 | [1] 0.171 | [2] -0.011 | [3] 0.075 | [4] -0.049 | [5] 0.016 | [6] 0.052 | [7] 0.044 | [8] 0.04 | IRAK-1-4 Inhibitor I -0.047 | ibrutinib 0.033 | [9] -0.024 | ralimetinib -0.023 | [10] -0.127 | [11] 0.007 | [12] 0.039 | [13] 0.033 | [14] 0.017 | [15] 0.01 | [16] 0.007

EMC1 (UniProt Q8N766)
inactive: erlotinib -0.006 | [1] 0.009 | [2] -0.032 | [3] 0.051 | [4] 0.01 | [5] -0.009 | [6] -0.039 | [7] 0.009 | [8] -0.015 | IRAK-1-4 Inhibitor I 0.008 | ibrutinib 0.009 | [9] 0.028 | ralimetinib 0.009 | [10] -0.02 | [11] -0.042 | [12] -0.004 | [13] 0.006 | [14] -0.018 | [15] -0.008 | [16] 0.011

EMD (UniProt P50402)
inactive: erlotinib -0.027 | [1] 0.035 | [2] -0.009 | [3] -0.023 | [4] -0.053 | [5] -0.047 | [6] -0.079 | [7] -0.004 | [8] -0.028 | IRAK-1-4 Inhibitor I -0.066 | ibrutinib 0.012 | [9] -0.002 | ralimetinib 0.041 | [10] 0.042 | [11] -0.025 | [12] -0.032 | [13] -0.026 | [14] 0.022 | [15] 0 | [16] 0.037

ENDOD1 (UniProt O94919)
inactive: erlotinib 0.013 | [1] -0.017 | [2] 0.036 | [3] 0.019 | [4] -0.012 | [5] 0 | [6] -0.041 | [7] 0.009 | [8] 0.02 | IRAK-1-4 Inhibitor I 0.058 | ibrutinib 0.001 | [9] 0.002 | ralimetinib -0.015 | [10] -0.009 | [11] -0.002 | [12] -0.015 | [13] -0.073 | [14] -0.022 | [15] -0.006 | [16] -0.043
